Test results reported in patent US20250179195A1.
Where a chain is given by its changes, count along the chain named. These are yes or no findings as the source states them, for the method shown. Some entries that bind do so weakly or less than the wild type.

B1: anti-FLT3 antibody 17566 (antibody, human IgG1, kappa, L234A L235A, V domains shown)
VH: QVTLKESGPVLVKPTETLTLTCTVSGFSFNNARMGVNWIRQPPGKALEWLAHIFSNDEKSYSTSLKSRLTISKDISKSQVVLTMTNMDPVDTATYYCARIVGYGSGWRLLGDYWGQGTLVTVSS
VL: AIQMTQSPSSLSASVGDRVTITCRASQGITNDLGWYQQKPGKAPKLLIYAASSLQSGVPSRFSGSGSGTDFTLTISSLQPEDFATYYCLQDYNYPWTFGQGTKVEIKR
B2: anti-FLT3 antibody 17543 (antibody, human IgG1, kappa, L234A L235A, V domains shown)
VH: QVTLKESGPVLVKPTETLTLTCTVSGFSLINARMGVTWIRQPPGKALEWLAHIFSNDEKSYSTSLKSRLTISKDTSKSQVVLTMTNMDPVDTATYYCARIPGYSRGWDYYYYGMDVWGQGTMVTVSS
VL: B1 VL with A1D, T30R, L46R, S53T, D70E, D91H, Y92N, N93S
B3: anti-FLT3 antibody 17497 (antibody, human IgG1, kappa, L234A L235A, V domains shown)
VH: QVQLQESGPGLVKPSGTLSLTCAVSGGSISSTNWWSWVRQPPGKGLEWIGEISHRGSTNYNPSLKSRVTISVDKSKNQFSLKLSSVTAADTAVYYCARDPEMTLYYYYGMDVWGQGTTVTVSS
VL: B1 VL with A1D, Q27R, T30R, L46R, D70E, D91H, Y92N, N93S, W96L, Q100G

What follows are binders tested against cynomolgus FLT3 expressed on CHO-S cells (cynomolgus) (assay: flow cytometry (iQue Screener PLUS) on CHO-S cells transiently expressing cynomolgus FLT3; AF647 anti-human IgG (H+L) secondary; GeoMean RL1-H; 12-point titration).

| Binder | binding |
| --- | --- |
| B1 | binds |
| B2 | binds |
| B3 | binds |
